The text below walks through data of article PMC9786881 (Viruses, 2022).

These are yes or no findings as the source states them, for the method shown. Some binding calls cover weakened binding; strength is not graded here.

This experiment addresses RABV nucleoprotein lacking its N-terminal arm (N[change], residues 24-450) (rabies virus (strain CVS-11)) (UniProt Q8JXF6). The experiment in a line: fluorescence polarisation.

With “P42 labeled with FAM at its N-terminus (from UniProt P22363 1-42) (peptide)”, the binding result is “binds”.
